The results in this text go back to PMC9234244.

Sequences of proteins named here, by UniProt entry; tags and fusion partners are left off. Residues count along the entry.
UniProt P36894, residues 24-532: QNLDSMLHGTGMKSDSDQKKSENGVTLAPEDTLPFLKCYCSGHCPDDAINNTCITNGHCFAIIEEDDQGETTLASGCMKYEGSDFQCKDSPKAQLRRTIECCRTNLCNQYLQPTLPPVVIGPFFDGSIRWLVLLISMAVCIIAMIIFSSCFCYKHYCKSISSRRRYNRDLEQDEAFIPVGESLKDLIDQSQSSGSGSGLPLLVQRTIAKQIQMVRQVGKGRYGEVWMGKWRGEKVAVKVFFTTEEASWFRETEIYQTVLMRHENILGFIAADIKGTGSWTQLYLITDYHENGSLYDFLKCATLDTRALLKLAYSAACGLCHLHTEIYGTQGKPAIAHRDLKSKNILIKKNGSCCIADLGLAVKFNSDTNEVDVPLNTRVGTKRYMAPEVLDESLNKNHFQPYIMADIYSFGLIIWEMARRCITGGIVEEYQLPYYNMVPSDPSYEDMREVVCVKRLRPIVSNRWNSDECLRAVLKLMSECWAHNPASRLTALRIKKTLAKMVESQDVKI
UniProt Q9EQD0, residues 27-585: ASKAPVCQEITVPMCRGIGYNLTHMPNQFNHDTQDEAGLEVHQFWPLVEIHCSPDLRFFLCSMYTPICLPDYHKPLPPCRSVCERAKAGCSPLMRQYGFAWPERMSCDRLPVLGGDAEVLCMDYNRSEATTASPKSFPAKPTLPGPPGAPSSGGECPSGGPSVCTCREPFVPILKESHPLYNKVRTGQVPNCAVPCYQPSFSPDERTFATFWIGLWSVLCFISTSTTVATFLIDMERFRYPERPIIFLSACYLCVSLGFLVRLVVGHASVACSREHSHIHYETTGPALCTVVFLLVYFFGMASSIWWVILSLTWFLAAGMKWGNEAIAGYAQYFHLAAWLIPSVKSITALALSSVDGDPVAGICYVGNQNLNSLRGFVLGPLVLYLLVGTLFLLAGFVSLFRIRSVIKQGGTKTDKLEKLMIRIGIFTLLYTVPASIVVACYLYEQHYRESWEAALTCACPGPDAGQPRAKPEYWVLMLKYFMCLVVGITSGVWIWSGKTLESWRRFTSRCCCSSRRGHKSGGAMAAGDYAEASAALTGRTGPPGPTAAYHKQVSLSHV
UniProt O00744, residues 29-389: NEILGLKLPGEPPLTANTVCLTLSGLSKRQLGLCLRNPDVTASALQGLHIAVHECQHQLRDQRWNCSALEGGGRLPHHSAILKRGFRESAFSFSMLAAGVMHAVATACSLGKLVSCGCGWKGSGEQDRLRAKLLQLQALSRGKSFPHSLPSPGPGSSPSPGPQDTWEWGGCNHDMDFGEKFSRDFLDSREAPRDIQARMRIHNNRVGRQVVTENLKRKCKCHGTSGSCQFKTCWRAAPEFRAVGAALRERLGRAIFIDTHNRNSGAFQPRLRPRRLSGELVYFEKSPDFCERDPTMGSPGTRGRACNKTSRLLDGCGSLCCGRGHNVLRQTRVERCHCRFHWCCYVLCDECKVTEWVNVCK
UniProt P56704, residues 19-352: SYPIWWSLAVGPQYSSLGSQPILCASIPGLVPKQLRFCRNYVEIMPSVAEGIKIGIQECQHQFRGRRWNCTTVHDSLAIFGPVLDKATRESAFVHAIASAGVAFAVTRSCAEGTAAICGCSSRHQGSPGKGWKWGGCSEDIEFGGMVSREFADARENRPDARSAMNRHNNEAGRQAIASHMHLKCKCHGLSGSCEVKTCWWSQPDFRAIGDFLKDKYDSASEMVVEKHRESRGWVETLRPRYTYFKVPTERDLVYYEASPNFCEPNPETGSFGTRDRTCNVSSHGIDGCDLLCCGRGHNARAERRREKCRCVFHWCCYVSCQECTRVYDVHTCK

For test [1], the target named is ALK3-HA (BMP type I receptor ALK3) (UniProt P36894). Nature of the test: co-IP; HEK293T cells co-transfected; whole cell lysates incubated with the antibody at 4 °C overnight, then protein G or protein A beads 6 h at 4 °C; Western blotting. Background: Immunoblotting shows a protein as a band on a membrane.
For a further test, the target named is FZD5 (SNAP-Fzd5) (UniProt Q9EQD0). Described as above.
The next test addresses T1, Wnt9a-V5 (UniProt O14904).
T1 sequence: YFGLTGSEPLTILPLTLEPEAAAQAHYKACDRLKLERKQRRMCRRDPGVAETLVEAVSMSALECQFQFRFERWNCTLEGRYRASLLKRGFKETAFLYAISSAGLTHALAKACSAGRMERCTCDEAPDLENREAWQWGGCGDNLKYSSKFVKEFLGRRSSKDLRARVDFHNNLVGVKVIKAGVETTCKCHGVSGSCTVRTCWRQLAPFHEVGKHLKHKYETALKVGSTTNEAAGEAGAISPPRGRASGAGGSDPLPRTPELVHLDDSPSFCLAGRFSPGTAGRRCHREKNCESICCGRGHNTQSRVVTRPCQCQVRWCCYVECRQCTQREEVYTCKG
The description is as above.

Test [2] concerns the target Wnt10b-V5 (UniProt O00744). The description is as above.
Another test concerns the target T2, FZD4 (Frizzled-4) (UniProt Q61088).
T2 sequence: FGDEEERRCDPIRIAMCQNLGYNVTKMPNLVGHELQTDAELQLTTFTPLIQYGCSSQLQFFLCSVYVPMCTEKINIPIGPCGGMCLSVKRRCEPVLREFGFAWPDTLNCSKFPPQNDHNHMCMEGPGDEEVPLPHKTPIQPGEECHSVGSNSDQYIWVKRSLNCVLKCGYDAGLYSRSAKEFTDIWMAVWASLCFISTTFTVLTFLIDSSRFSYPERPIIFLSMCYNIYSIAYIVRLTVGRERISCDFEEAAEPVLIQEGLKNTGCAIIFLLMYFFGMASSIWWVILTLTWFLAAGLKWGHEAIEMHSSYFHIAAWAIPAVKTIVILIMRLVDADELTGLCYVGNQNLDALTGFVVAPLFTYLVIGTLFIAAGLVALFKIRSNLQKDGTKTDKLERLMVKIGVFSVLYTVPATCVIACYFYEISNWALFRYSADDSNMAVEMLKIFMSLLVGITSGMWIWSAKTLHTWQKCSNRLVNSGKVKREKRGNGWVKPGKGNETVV
Described as above.

The target of another test is T3, Wnt2-V5 (UniProt P09544).
T3 sequence: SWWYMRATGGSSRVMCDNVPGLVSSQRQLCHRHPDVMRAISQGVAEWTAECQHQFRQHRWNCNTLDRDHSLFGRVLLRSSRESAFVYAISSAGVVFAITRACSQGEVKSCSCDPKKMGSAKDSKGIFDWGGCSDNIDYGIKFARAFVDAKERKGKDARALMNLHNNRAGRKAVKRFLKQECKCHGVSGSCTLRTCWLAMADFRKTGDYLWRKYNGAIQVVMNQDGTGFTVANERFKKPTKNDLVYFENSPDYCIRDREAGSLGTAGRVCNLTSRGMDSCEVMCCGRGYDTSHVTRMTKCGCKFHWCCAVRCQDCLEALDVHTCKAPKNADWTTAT
Described as above.

Test [3] concerns the target Wnt3a-V5 (UniProt P56704). The test is described as above.
Another test addresses T4, Wnt8a-V5 (UniProt Q9H1J5).
T4 sequence: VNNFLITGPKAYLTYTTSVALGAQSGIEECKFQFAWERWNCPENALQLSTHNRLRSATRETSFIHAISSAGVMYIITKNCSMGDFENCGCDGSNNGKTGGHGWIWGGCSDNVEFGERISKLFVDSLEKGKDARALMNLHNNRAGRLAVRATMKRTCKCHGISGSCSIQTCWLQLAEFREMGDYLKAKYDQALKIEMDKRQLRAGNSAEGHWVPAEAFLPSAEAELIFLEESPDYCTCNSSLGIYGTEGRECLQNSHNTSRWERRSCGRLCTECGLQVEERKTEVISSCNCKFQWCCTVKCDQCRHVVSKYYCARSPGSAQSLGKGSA
The description is as above.

For test [4], the target named is T5, SNAP-tagged FZD4 (SNAP-FZD4) (UniProt Q61088).
T5 sequence (chain, BG-PEG12-Biotin on the SNAP tag (cell surface labelling experiment only)): T2 sequence
The description is as above.

The target of the next test is T6, Wnt8b-V5 (UniProt Q93098).
T6 sequence: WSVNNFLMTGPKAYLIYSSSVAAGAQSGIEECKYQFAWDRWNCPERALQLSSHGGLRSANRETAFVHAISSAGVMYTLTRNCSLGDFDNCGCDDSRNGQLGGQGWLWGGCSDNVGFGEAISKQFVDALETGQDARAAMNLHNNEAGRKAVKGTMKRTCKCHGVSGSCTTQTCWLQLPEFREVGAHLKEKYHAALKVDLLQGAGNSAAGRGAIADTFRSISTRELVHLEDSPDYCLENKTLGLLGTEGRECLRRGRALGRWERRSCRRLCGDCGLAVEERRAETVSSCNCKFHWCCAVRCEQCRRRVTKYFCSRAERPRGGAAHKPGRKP
The description is as above.

The target in test [5] is Wnt10b-V5 (UniProt O00744). Put plainly: co-IP; conditioned medium of co-transfected HEK293T cells immunoprecipitated with anti-HA or anti-V5; Western blotting.
Test [6] addresses Wnt3a-V5 (UniProt P56704). The test is described as above.

No constants are given. Whether binding was seen depends on the method and setting. Binding seen in cells or lysates may run through a third protein. Some binding calls cover weakened binding; strength is not graded here. For part of these data: Tags and fused reporters may be left off the sequences shown.

For the molecule “Wnt3a-V5 (from UniProt P56704 19-352) (ligand)”, the binding result in [1] is on record as “no binding”.

B1: FSTL1-HA (follistatin-like 1, HA-tagged) (protein, UniProt Q62356 19-306)
chain: EEEPRSKSKICANVFCGAGRECAVTEKGEPTCLCIEQCKPHKRPVCGSNGKTYLNHCELHRDACLTGSKIQVDYDGHCKEKKSASPSASPVVCYQANRDELRRRLIQWLEAEIIPDGWFSKGSNYSEILDKYFKSFDNGDSHLDSSEFLKFVEQNETAINITTYADQENNKLLRSLCVDALIELSDENADWKLSFQEFLKCLNPSFNPPEKKCALEDETYADGAETEVDCNRCVCSCGHWVCTAMTCDGKNQKGVQTHTEEEKTGYVQELQKHQGTAEKTKKVNTKEI
For the molecule B1, the binding entry in the test with FZD5 (SNAP-Fzd5), with Wnt9a-V5, in the test with Wnt10b-V5 [2], in the test with FZD4 (Frizzled-4), in the test with Wnt2-V5 and with Wnt3a-V5 [3] was “binds” each time. For the same molecule, the binding result (with Wnt8a-V5; in [4]; with Wnt8b-V5; with Wnt10b-V5 [5]; in the test with Wnt3a-V5 [6]) was “binds” throughout.
